PubChem BioAssay AID504795 | Drosophila RNAi Screening Center – 2011
This is not the whole library: the list holds selected reagents. 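Every listed dsRNA shows some phenotype; how reagents were selected for listing is not stated.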 A plus sign joins genes that one reagent is predicted to hit.

Test: 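Knock-downs causing abnormal branching, bundling, swelling or growth of cultured neurons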 (primary screen)
Cell system: primary Drosophila neurons and glia
Knock-down reagent: long dsRNA against Drosophila genes, 250 ng dsRNA per well
Timing: one week
Measurement: 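GFP-labelled neurons and glia imaged live by automated microscope one week after 250 ng dsRNA per well; morphology scored by eye as descriptive phenotype terms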

CG31161 [DRSC16144]
- phenotype seen, replicate 1: axon bundles split apart

CG8509 [DRSC20109]
- phenotype seen, replicate 1: more self-contacts of neurites

CG9686 [DRSC18439]
- phenotype seen, replicate 1: too many neurite branches

CG13449 [DRSC09996]
- phenotype seen, replicate 1: abnormal cell clusters

CG2747 [DRSC15450]
- phenotype seen, replicate 1: axon bundles split apart

CG4041 [DRSC18339]
- phenotype seen, replicate 1: too many neurite branches

Atx2 [DRSC15727]
- phenotype seen, replicate 1: too many neurite branches

CG30192 [DRSC03977]
- phenotype seen, replicate 1: too many neurite branches

CG14221 [DRSC19578]
- phenotype seen, replicate 1: reduced axon outgrowth

CG4363 [DRSC04465]
- phenotype seen, replicate 1: axon bundles split apart

Rpi [DRSC04583]
- phenotype seen, replicate 1: sheet-like cell extensions

Prx1 [DRSC10741]
- phenotype seen, replicate 1: too many neurite branches

asRNA:CR42743 + CG34162 [DRSC01190]
- phenotype seen, replicate 1: axon bundles split apart

CG11350 [DRSC08181]
- phenotype seen, replicate 1: reduced axon outgrowth
- phenotype seen, replicate 2: abnormal cell clusters

beat-VII [DRSC14743]
- phenotype seen, replicate 1: beaded; swollen axons

beat-VII [DRSC14744]
- phenotype seen, replicate 1: reduced axon outgrowth

GalT1 [DRSC22238]
- phenotype seen, replicate 1: too many neurite branches

SLO2 [DRSC06212]
- phenotype seen, replicate 1: axon bundles split apart

SLO2 [DRSC06216]
- phenotype seen, replicate 1: too many neurite branches

SLO2 [DRSC06218]
- phenotype seen, replicate 1: sheet-like cell extensions

Part of the list above, set out differently:
predicted target | amplicon | phenotype seen, replicate 1 | phenotype seen, replicate 2
GalT1 | DRSC22238 | too many neurite branches | –
SLO2 | DRSC06212 | axon bundles split apart | –
